From PMC6692068
Results are given in words; binding and its absence hold for the method and conditions named. Binding seen in cells or lysates may run through a third protein. Some results given as binding are weak or reduced against the parent protein; the word gives no strength.

By UniProt entry, the sequences of proteins in these tests, tags left out.
UniProt P0DMV8: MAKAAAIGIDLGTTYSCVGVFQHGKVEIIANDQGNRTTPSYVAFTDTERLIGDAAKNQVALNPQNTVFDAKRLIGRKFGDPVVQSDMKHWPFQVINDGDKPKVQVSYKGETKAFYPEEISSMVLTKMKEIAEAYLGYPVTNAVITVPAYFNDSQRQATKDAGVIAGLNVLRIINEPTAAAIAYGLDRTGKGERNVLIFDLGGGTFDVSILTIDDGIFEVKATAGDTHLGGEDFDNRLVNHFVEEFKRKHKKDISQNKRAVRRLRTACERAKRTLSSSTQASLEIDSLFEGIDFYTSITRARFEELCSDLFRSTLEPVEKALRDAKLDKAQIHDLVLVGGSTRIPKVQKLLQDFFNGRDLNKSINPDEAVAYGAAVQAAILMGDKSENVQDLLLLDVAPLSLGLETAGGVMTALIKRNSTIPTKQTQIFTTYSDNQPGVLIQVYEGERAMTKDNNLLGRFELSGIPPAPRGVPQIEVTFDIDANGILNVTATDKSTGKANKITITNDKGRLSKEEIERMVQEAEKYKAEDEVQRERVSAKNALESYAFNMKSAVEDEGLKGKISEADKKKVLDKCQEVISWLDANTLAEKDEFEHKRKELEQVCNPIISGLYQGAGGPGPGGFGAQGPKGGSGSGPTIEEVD
UniProt P13569: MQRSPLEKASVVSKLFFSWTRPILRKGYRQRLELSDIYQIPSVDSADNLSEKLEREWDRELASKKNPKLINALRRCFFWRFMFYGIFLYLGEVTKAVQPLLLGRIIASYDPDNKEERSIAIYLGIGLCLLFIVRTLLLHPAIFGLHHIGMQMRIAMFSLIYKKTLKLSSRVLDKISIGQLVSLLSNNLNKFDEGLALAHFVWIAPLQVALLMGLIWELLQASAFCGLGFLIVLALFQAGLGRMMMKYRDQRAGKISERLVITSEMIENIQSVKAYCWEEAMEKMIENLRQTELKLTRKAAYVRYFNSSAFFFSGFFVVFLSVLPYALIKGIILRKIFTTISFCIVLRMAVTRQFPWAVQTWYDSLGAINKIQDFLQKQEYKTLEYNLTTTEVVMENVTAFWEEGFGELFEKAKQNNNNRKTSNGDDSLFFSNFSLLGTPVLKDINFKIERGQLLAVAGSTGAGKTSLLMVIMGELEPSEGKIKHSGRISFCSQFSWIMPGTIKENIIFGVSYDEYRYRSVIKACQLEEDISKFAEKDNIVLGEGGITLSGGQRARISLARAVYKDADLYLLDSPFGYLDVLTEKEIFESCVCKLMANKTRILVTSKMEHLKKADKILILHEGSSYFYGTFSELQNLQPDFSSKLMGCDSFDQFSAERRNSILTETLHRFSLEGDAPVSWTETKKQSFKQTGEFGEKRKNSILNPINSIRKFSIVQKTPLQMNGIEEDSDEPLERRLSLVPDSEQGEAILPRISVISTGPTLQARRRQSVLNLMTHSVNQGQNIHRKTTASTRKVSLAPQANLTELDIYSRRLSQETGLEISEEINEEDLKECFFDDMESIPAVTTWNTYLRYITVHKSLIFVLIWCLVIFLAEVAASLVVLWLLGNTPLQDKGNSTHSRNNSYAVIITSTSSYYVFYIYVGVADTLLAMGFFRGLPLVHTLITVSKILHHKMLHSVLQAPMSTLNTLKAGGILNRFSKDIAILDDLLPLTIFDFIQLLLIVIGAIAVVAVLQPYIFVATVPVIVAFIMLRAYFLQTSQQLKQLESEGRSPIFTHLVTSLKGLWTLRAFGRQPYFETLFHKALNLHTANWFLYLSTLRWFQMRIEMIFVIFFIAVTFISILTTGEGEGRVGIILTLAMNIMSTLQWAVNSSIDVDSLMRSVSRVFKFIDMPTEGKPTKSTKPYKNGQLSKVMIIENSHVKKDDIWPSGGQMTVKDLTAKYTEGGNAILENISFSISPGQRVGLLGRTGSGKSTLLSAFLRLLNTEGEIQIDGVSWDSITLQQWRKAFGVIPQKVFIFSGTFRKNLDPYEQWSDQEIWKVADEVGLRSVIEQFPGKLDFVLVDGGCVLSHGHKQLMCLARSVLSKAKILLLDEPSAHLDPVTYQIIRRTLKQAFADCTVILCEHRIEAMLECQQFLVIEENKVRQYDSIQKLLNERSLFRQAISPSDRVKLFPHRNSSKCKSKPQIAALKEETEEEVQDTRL

Target: Flag-Hsp70 (UniProt P0DMV8)
Assay: co-IP; Flag-Hsp70 immunoprecipitated with anti-Flag M2 magnetic beads, 2 h at 4°C, from HEK-Tet-On lysate (PBS, 1% TX-100); CFTR induced for 6 h with 20 μM MG132; without or with co-expressed myc-DJA2; washed with PBS, 0.1% TX-100; eluted with FLAG peptide; immunoblot

Q: How did the binding turn out when CFTR-3HA (from UniProt P13569 1-1480) was run?
A: binds
